Among the test systems are Podoplanin (human); Protein 71-7A (human); Protein BEAN (human); Protein BEX5 (human); Protein DGCR6L (human); Protein Dr1 (human); Protein FAM46B (human); Protein FAM63B (human); Protein FAM76B (human); Protein NOXP20 (human); Protein Niban (human).
Holding throughout (experiment): protein microarray (ProtoArray v5.0), streptavidin-Alexa Fluor 647
Details in all cases: 3'-biotin; 20 mM Tris (pH 7.5), 5 mM MgCl2, 100 mM KCl, 0.1% Tween-20, A/T-rich and random oligonucleotide blockers; temperature not stated; high values mean tight binding

Assay [1] relates to Plasma membrane calcium-transporting ATPase 3 (human).
Assay [2] concerns Pleckstrin homology domain-containing family J member 1 (human).
Assay [3] deals with Polyamine-modulated factor 1 (human).
Assay [4] deals with Pre-mRNA-splicing factor ISY1 homolog (human).
The subject of assay [5] is Prenylated Rab acceptor protein 1 (human).
The test system of assay [6] is Probable ATP-dependent RNA helicase DDX6 (human).
Assay [7] concerns Probable ergosterol biosynthetic protein 28 (human).
In assay [8] the test system is Proteasome subunit alpha type-1 (human).
Assay [9] deals with Proteasome subunit beta type-2 (human).

The values below come from article PMC5996148.

Where “and” joins values, the source holds several entries; their conditions need not be identical. Equal entries are not always repeated. This is one part of the list.

On to “GGTGACAGGGGTATGGGGAGGGG [G4-2 biotinylated (Ct1)]”, for which the binding signal in assay [1] is -0.361 z-score; in assay [2], -0.411 z-score; with Podoplanin (human), -0.393 z-score and -0.389 z-score; in assay [3], -0.398 z-score; in assay [4], -0.404 z-score; in assay [5], -0.381 z-score. Besides, the binding signal in assay [6] was 6.79 z-score; in assay [7], -0.402 z-score; in [8], -0.371 z-score; in assay [9], -0.396 z-score; with Protein 71-7A (human), -0.37 z-score; with Protein BEAN (human), -0.398 z-score. For the same sequence, the binding signal is -0.398 z-score in the assay with Protein BEX5 (human); -0.392 z-score in the assay on Protein DGCR6L (human); -0.398 z-score in the assay with Protein Dr1 (human); -0.372 z-score in the assay with Protein FAM46B (human); -0.402 z-score in the assay with Protein FAM63B (human); 4.14 z-score with Protein FAM76B (human). Besides, the binding signal in the assay on Protein NOXP20 (human) is -0.389 z-score; in the assay on Protein Niban (human), -0.381 z-score.
